Laboratory results from US7759392B2, “Pharmaceutical compounds” (Nicox S.A., priority 1999, dated 2010).
Some entries share one result that the patent states for a list of compounds.

Tested on: erythrocytes
Assay: Test 4A: inhibition of erythrocyte haemolysis induced by cumene hydroperoxide
Conditions: 2 mM, preincubated 30 minutes; cumene hydroperoxide 270 μM; at Tmax; listed as diethanolamine

## OCCNCCO [Diethanolamine]
  % Haemolysis inhibition: lower than 15%
